{"sequences": {"note": "Protein sequences, listed by entry. Tags and fused reporters are not part of them.", "UniProt Q6Q477": "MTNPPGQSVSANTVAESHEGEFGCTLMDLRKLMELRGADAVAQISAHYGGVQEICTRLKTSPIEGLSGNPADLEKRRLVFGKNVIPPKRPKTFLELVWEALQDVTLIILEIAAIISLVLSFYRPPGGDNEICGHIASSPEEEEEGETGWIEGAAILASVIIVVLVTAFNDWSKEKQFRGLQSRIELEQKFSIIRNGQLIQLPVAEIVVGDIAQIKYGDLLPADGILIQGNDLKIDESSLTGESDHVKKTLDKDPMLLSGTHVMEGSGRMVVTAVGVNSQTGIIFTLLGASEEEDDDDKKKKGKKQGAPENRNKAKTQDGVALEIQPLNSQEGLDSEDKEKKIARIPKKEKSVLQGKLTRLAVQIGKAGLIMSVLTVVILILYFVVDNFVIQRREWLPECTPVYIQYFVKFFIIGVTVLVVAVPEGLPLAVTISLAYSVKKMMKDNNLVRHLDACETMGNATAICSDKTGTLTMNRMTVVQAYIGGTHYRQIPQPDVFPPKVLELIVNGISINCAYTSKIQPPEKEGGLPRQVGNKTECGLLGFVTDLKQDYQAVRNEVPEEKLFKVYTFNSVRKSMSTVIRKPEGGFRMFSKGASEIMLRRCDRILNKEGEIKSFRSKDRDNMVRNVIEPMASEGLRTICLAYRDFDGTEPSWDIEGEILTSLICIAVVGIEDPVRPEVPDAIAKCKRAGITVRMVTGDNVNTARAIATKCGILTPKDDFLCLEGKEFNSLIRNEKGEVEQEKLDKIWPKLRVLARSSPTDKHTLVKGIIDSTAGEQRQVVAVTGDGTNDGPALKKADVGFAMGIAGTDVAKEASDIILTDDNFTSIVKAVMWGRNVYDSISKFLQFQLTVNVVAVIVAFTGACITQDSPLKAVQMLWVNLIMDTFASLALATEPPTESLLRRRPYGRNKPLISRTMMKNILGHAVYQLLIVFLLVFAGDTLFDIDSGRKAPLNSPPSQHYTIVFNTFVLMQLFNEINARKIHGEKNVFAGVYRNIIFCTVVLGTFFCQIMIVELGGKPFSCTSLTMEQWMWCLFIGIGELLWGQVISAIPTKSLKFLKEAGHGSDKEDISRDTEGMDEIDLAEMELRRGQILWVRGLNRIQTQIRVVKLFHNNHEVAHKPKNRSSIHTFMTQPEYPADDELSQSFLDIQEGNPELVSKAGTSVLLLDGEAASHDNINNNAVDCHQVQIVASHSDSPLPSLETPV"}, "source": "paper PMC5640428", "note": "These are yes or no findings as the source states them, for the method shown. Binding seen in cells or lysates may run through a third protein. These calls come from enrichment with a bait or labelling near it, and not all partners need be listed.", "data": [{"molecular_target": "T1, native KCC2 (K+-Cl- cotransporter KCC2) (mouse (endogenous in brain)) (UniProt Q91V14)", "T1 sequence": "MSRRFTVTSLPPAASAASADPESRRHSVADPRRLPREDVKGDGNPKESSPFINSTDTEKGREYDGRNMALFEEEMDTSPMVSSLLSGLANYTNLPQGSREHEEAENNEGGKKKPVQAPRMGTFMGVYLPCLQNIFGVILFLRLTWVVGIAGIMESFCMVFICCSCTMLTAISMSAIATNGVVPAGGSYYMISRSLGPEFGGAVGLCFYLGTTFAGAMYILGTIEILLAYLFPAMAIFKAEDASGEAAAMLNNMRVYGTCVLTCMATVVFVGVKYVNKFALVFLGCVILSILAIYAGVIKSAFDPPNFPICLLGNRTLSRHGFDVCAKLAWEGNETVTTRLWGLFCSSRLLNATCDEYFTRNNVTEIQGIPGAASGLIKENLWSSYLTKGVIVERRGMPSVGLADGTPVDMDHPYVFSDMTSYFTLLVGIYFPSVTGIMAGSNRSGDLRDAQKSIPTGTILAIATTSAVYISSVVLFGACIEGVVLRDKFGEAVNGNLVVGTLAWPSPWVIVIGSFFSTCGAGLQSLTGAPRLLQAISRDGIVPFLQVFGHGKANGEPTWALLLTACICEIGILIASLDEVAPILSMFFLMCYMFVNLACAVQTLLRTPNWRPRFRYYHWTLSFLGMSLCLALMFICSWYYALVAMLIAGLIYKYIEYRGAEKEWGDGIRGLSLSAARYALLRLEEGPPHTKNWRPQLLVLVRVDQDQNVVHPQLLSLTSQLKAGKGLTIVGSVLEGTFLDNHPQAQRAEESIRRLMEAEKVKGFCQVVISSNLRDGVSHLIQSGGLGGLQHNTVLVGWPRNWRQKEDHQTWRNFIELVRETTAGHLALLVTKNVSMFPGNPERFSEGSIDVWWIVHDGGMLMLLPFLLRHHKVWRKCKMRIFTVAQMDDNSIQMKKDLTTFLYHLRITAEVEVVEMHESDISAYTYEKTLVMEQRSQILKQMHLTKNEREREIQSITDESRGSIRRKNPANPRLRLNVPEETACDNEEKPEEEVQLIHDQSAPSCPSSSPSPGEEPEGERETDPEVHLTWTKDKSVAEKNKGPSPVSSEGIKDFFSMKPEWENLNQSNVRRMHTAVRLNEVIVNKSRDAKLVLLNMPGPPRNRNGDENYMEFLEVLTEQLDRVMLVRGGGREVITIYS", "assay": "affinity purification with mass spectrometry; C-terminal pan-KCC2 antibody (5 µg) on beads; CHAPS-solubilised membrane fractions (1 mg) of P50 mouse brain; parallel IgG control", "values": [{"molecule": "ATP2B4 (from UniProt Q6Q477 1-1205)", "binding": "binds"}, {"molecule": "JAGN1 (protein, UniProt Q5XKN4 1-183) MASRAGPRAAGTDGSDFQHRERVAMHYQMSVTLKYEIKKLIYVHLVIWLLLVAKMSVGHLRLLSHDQVAMPYQWEYPYLLSIVPSVLGLLSFPRNNISYLVLSMISMGLFSIAPLIYGSMEMFPAAQQLYRHGKAYRFLFGFSAVSVMYLVLVLAVQVHAWQLYYSKKLLDSWFTSTQEKKRK", "binding": "binds"}, {"molecule": "SLC2A1 (protein, UniProt P17809 1-492) MDPSSKKVTGRLMLAVGGAVLGSLQFGYNTGVINAPQKVIEEFYNQTWNHRYGEPIPSTTLTTLWSLSVAIFSVGGMIGSFSVGLFVNRFGRRNSMLMMNLLAFVAAVLMGFSKLGKSFEMLILGRFIIGVYCGLTTGFVPMYVGEVSPTALRGALGTLHQLGIVVGILIAQVFGLDSIMGNADLWPLLLSVIFIPALLQCILLPFCPESPRFLLINRNEENRAKSVLKKLRGTADVTRDLQEMKEEGRQMMREKKVTILELFRSPAYRQPILIAVVLQLSQQLSGINAVFYYSTSIFEKAGVQQPVYATIGSGIVNTAFTVVSLFVVERAGRRTLHLIGLAGMAGCAVLMTIALALLERLPWMSYLSIVAIFGFVAFFEVGPGPIPWFIVAELFSQGPRPAAIAVAGFSNWTSNFIVGMCFQYVEQLCGPYVFIIFTVLLVLFFIFTYFKVPETKGRTFDEIASGFRQGGASQSDKTPEELFHPLGADSQV", "binding": "binds"}]}, {"molecular_target": "T1, native KCC2 (K+-Cl- cotransporter KCC2) (mouse (endogenous in brain))", "assay": "affinity purification with mass spectrometry; anti-KCC2 antibodies (C-terminal, N-terminal KCC2b, pS940) cross-linked with DMP to GammaBind IgG beads; C12E9-solubilised whole-brain membrane fractions of P5 and P50 mice; 4 hr, 4°C; parallel IgG/IgY controls", "values": [{"molecule": "SYNGR3 (protein, UniProt Q8R191 1-229) MEGASFGAGRAGAAFDPVSFARRPQTLLRVVSWVFSIAVFGPIVNEGYVNSDSGPELRCVFNGNAGACRFGVVLGLGAFIACVAFLLLDVRFQQISSVRDRRRAVLLDLGFSGVWSFLWFVGFCFLTNQWQRTTPGPGTAQAGDAARAAIAFSFFSILSWVALTVKALQRFRLGTDMSLFATDQLGTGAAQAYPGYPVGSGVEGTETYQSPPFTETLDTSSKGYQVPAY", "binding": "binds"}, {"molecule": "DLD (protein, UniProt O08749 36-509) ADQPIEADVTVIGSGPGGYVAAIKSAQLGFKTVCIEKNETLGGTCLNVGCIPSKALLNNSHYYHMAHGKDFASRGIEIPEVRLNLEKMMEQKHSAVKALTGGIAHLFKQNKVVHVNGFGKITGKNQVTATKADGSTQVIDTKNILVATGSEVTPFPGITIDEDTIVSSTGALSLKKVPEKLVVIGAGVIGVELGSVWQRLGADVTAVEFLGHVGGIGIDMEISKNFQRILQRQGFKFKLNTKVTGATKKSDGKIDVSVEAASGGKAEVITCDVLLVCIGRRPFTQNLGLEELGIELDPKGRIPVNNRFQTKIPNIYAIGDVVAGPMLAHKAEDEGIICVEGMAGGAVHIDYNCVPSVIYTHPEVAWVGKSEEQLKEEGIEFKIGKFPFAANSRAKTNADTDGMVKILGHKSTDRVLGAHILGPGAGEMVNEAALALEYGASCEDIARVCHAHPTLSEAFREANLAAAFGKPINF", "binding": "binds"}, {"molecule": "SRCIN1 (protein, UniProt Q9QWI6 1-1250) MQPWQCLRRFALAWWERTAEGRARSPREEVGPRDPGGRGEPDPERSSPPMLSADDAEYPREYRTLGGGGGGGSGGRRFSNVGLVHTSERRHTVIAAQSLEALSGLQKADADRKRDAFMDHLKSKYPQHALALRGQQDRMREQVGGWTVDPVCLLSSLCSHLHGDSTPSGAGQPAQQPNYWSFKTRSSRHTQGAQPGLADQAAKLSYASAESLETMSEAELPLGFSRMNRFRQSLPLSRSASQTKLRSPGVLFLQFGEETRRVHITHEVSSLDTLHALIAHMFPQKLTMGMLKSPNTAILIKDEARNVFYELEDVRDIQDRSIIKIYRKEPLYAAFPGSHLTNGDLRREMVYASRESSPTRRLNNLSPASHLASSSPPPGLPSGLPSGLPSGSPSRSRLSYAGGRPPSYAGSPVHHAAERLGGAPTGQGVSPSPSAILERRDVKPDEDLAGKAGGMVLVKGEGLYADPYGLLHEGRLSLAAAAETHSHTRARAACTSGVPCALSAPTPLPRCSPTWRTRCTRRALAALYGDGYGFRLPPSSPQKLADVSAPSGGPPPPHSPYSGPPSRGSPVRQSFRKDSGSSSVFAESPGGKARSTGSASTAGAPPSELFPGPGERSLVGFGPPVPAKDTETRERMEAMEKQIASLTGLVQSALLRGSEPETPSEKVEGSNGAATPSAPVCGSGSKSSGATPVSGPPPPSASSTPAGQPTAVSRLQMQLHLRGLQNSASDLRGQLQQLRNVQLQNQESVRALLKPTEADVSMRVSEAARRQEDPLQRQRTLVEEERLRYLNDEELITQQLNDLEKSVEKIQRDVAHNHRLMPGPELEEKALVLKQLGETLTELKAHFPGLQSKMRVVLRVEVEAVKFLKEEPQRLDGLLKRCRGVTDTLAQIRRQVDEGMWPPPNNLLNQSPKKVAAETDFSKGLDFEIPPPSPPLNLHELSGPAEGTPLTPKSTNPTKCLDASSKRNTDKAVSVEAAERDWEEKRAALTQYSAKDINRLLEETQAELLKAIPDLDCASKTHPGPAPTPDHKPPKAPHGQKAAPRTEPSGRRGSDELTVPRYRTEKPSKSPPPPPPRRSFPSSHGLTTTRTGEVVVTSKKDSVFIKKAESEELEVQKPQVKLRRAVSEVVRPASTPPIMASAIKDEDDEERIIAELESGGSSVPPMKVVTPGASRLKAAQGPAGSPDKGKHGKQRTEYMRIQAQQQATKPSKEVSGPNETSSPGSEKPSGSRTSIPVLTSFGARNSSISF", "binding": "binds"}, {"molecule": "BASP1 (protein, UniProt Q91XV3 1-226) MGGKLSKKKKGYNVNDEKAKDKDKKAEGAGTEEEGTPKESEPQAAADATEVKESTEEKPKDAADGEAKAEEKEADKAAAAKEEAPKAEPEKSEGAAEEQPEPAPAPEQEAAAPGPAAGGEAPKAGEASAESTGAADGAAPEEGEAKKTEAPAAAGPEAKSDAAPAASDSKPSSAEPAPSSKETPAASEAPSSAAKAPAPAAPAAAEPQAEAPAAAASSEQSVAVKE", "binding": "binds"}, {"molecule": "KCNAB2 (protein, UniProt P62482 1-367) MYPESTTGSPARLSLRQTGSPGMIYSTRYGSPKRQLQFYRNLGKSGLRVSCLGLGTWVTFGGQITDEMAEHLMTLAYDNGINLFDTAEVYAAGKAEVVLGNIIKKKGWRRSSLVITTKIFWGGKAETERGLSRKHIIEGLKASLERLQLEYVDVVFANRPDPNTPMEETVRAMTHVINQGMAMYWGTSRWSSMEIMEAYSVARQFNLIPPICEQAEYHMFQREKVEVQLPELFHKIGVGAMTWSPLACGIVSGKYDSGIPPYSRASLKGYQWLKDKILSEEGRRQQAKLKELQAIAERLGCTLPQLAIAWCLRNEGVSSVLLGASNAEQLMENIGAIQVLPKLSSSIVHEIDSILGNKPYSKKDYRS", "binding": "binds"}, {"molecule": "NDUFA8 (protein, UniProt Q9DCJ5 1-172) MPGIVELPTLEELKVEEVKVSSAVLKAAAHHYGAQCDKTNKEFMLCRWEEKDPRRCLKEGKLVNGCALNFFRQIKSHCAEPFTEYWTCLDYSNMQLFRHCRQQQAKFDQCVLDKLGWVRPDLGQLSKVTKVKTDRPLPENPYHSRARPEPNPVIEGDLKPAKHGTRFFFWTV", "binding": "binds"}, {"molecule": "PDIA6 (protein, UniProt Q922R8 20-440) LYSSSDDVIELTPSNFNREVIQSDGLWLVEFYAPWCGHCQRLTPEWKKAATALKDVVKVGAVNADKHQSLGGQYGVQGFPTIKIFGANKNKPEDYQGGRTGEAIVDAALSALRQLVKDRLGGRSGGYSSGKQGRGDSSSKKDVVELTDDTFDKNVLDSEDVWMVEFYAPWCGHCKNLEPEWAAAATEVKEQTKGKVKLAAVDATVNQVLASRYGIKGFPTIKIFQKGESPVDYDGGRTRSDIVSRALDLFSDNAPPPELLEIINEDIAKKTCEEHQLCVVAVLPHILDTGAAGRNSYLEVLLKLADKYKKKMWGWLWTEAGAQYELENALGIGGFGYPAMAAINARKMKFALLKGSFSEQGINEFLRELSFGRGSTAPVGGGSFPTITPREPWDGKDGELPVEDDIDLSDVELDDLEKDEL", "binding": "binds"}, {"molecule": "SFXN3 (protein, UniProt Q91V61 1-321) MGDLPLNINIQEPRWDQSTFLGRARHFFTVTDPRNLLLSGEQLEASRNIVQNYRAGVATPGLTEDQLWRAKYVYDSAFHPDTGEKVVLIGRMSAQVPMNMTITGCMLTFYRKTPTVVFWQWVNQSFNAIVNYSNRSGDAPITVQQLGTAYVSATTGAVATALGLKSLTKHLPPLVGRFVPFAAVAAANCINIPLMRQRELQVGIPVTDEAGQRLGHSVTAAKQGIFQVVISRIGMAIPAMAIPPVIMNTLEKKDFLKRRPWLGAPLQVGLVGFCLVFATPLCCALFPQRSSIHVTRLEPELRAQIQAQNPSIDVVYYNKGL", "binding": "binds"}, {"molecule": "SLC25A22 (protein, UniProt Q9D6M3 1-323) MADKQISLPAKLINGGIAGLIGVTCVFPIDLAKTRLQNQQNGQRMYASMSDCLIKTIRSEGYFGMYRGAAVNLTLVTPEKAIKLAANDFFRHQLSKDGQKLTLPKEMLAGCGAGTCQVIVTTPMEMLKIQLQDAGRIAAQRKILAAQAQLSAQGGAQPSVEAPAPPRPTATQLTRDLLRNHGIAGLYKGLGATLLRDVPFSIVYFPLFANLNQLGRPSSEEKSPFYVSFLAGCVAGSAAAVAVNPCDVVKTRLQSLERGVNEDTYSGFLDCARKIWRHEGPSAFLKGAYCRALVIAPLFGIAQVVYFLGIAESLLGLLQEPQA", "binding": "binds"}]}]}
